At least one structure is not confirmed: it was looked up by name or label, or the drawing left a doubt.
Legend:
mouse fibroblast = test: Effect of EPA and palmitic acid on fibroblast proliferation (alamar Blue); type: cell-based
Procedure: The cell employed was a mouse 3T3-L1 cell. This cell was inoculated. at 3×10^4 cells/mL to a commercially available 24-well culture plate (353047, FALCON, Becton, Dickinson and Company Japan), where it was cultured in a commercially available cell culture medium (D-MEM, 11885084, GIBCO, Life Technologies Japan Ltd.) supplemented with 10% bovine serum (16010159, GIBCO, Life Technologies Japan Ltd.). The cell was cultured for about 6 hours in 5% CO2 and saturated water vapor atmosphere at 37° C. Thereafter, the culture medium for culturing the mouse fibroblast was switched to a medium which was the above-mentioned cell culture medium supplemented with 0.5% bovine serum (hereinafter referred to as “mouse fibroblast proliferation evaluation medium”), where the mouse fibroblast was cultured for 12 hours in 5% CO2 and saturated water vapor atmosphere at 37° C. […] The cell proliferation rate (%) was calculated as a percentage of the quotient obtained by dividing the fluorescent intensity of the alamar Blue under each experiment condition by the fluorescent intensity in the control group supplemented with no saturated or unsaturated fatty acids. […]

[1] = tested on: mouse 3T3-L1 cell fibroblast cultured together with fat cell; test: Effect of fat cell and EPA on fibroblast proliferation during culturing together; type: cell-based; details: 1 μM of EPA, culturing together for two days (FIG. 12)

## CC/C=C\C/C=C\C/C=C\C/C=C\C/C=C\CCCC(=O)O [EPA, eicosapentaenoic acid]
Mouse fibroblast; EPA 0.5 μM with palmitic acid 10 μM (FIG. 11)
  fibroblast proliferation suppression by palmitic acid: statistically significant alleviation
Mouse fibroblast; EPA at 0.5 μM alone (FIG. 11)
  cell proliferation: not by the EPA addition
[1]
  fibroblast proliferation suppression by the fat cell: statistically significant decrease

— patent publication US20120149775A1, “METHODS FOR PREVENTING AND IMPROVING SKIN ELASTIC PROPERTY LOSS” (SHISEIDO COMPANY, LTD., priority 2010, published 2012)
